Cell number change and AC50 data for 42 compounds are collected here from PubChem BioAssay AID2685 (National Center for Advancing Translational Sciences (NCATS), 2010).

What is called AC50 is the midpoint of the concentration-response curve, whichever way the signal moves. Higher therefore signals activity only at high concentration.

The test is described as follows: qHTS Assay for Lipid Storage Modulators in Drosophila S3 Cells.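 On Cell number change: cells counted by Cell Tracker Red CMTPX staining in the red channel.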 Conditions: BODIPY lipid droplet fluorescence, 18-24 h; for cell number change: measured here: cell count max response, cells fed with added oleic acid. Put shortly: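 Drosophila S3 cells got compounds at several concentrations plus oleic acid (400 uM solution). Laser-scanning cytometry with 488 nm excitation read lipid droplets at 500-530 nm and cells at 575-640 nm. Percent activity was relative to 20 uM Triacsin C.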
A general note: In qHTS, concentration-response curves come from the screen itself.

[1] abbreviates: measured here: lipid fluorescence (Fed channel) AC50, cells fed with added oleic acid.
Where [2] appears, read: measured here: cell number channel AC50, cells fed with added oleic acid.

This is one part of the list. Further columns of the screen follow, without active or inactive calls. Compounds called inactive in the main read-out are mostly missing here. Potencies come from curve fits of mixed quality, noted in brackets.

With `COc1ccc(S(=O)(=O)N2CCN(c3ncccn3)CC2)cc1OC`, the cell number change was found to be 5.47%. Also, under setting [1], the AC50 is 9.2 µM [rising, single point]. In the case of `CC(C)(C)NC(=O)c1cccc(NC(=O)c2ccco2)c1`, the cell number change was -19.9%. Further, the concentration at half-maximal activity (AC50) under setting [1] is 18.4 µM [falling, single point].

In the case of `Cc1cc(C)c(NC(=O)C(=O)NCc2ccco2)c(C)c1`, the cell number change turned out to be 44.6%. Further, under setting [2], the AC50 is 2.91 µM [rising, full curve]. `CSc1nnc(-c2sccc2-n2cccc2)o1`: the cell number change amounted to 33.7%. The AC50 under setting [2] is 32.6 µM [rising, single point]. Take `Cc1ccc2cc(C#N)c(SCc3nnc(-c4ccccc4[N+](=O)[O-])o3)nc2c1`: the cell number change was -15.8%. The half-maximal activity concentration (AC50) under setting [1] is 1.46 µM [falling, partial curve, poor fit].

As to `O=C(Nc1cc(Sc2ccccn2)cc([N+](=O)[O-])c1)c1cccc(F)c1`, the cell number change worked out at 19%. Also, the AC50 under setting [1] is 16.4 µM [rising, partial curve]. Take `Cn1nnnc1NCc1cccc(Cl)c1Cl`: the cell number change was 10.2%. As to `COCC(C)n1c(C)cc(C(=O)COC(=O)c2nc3nc(C)cc(C)n3n2)c1C` (configuration not stated), the cell number change is 16.1%. For the same compound, the half-maximal activity concentration (AC50) under setting [1] was 0.116 µM [falling, single point]. Regarding `CCn1c(SCC(=O)Nc2ccccc2C)nc2nc3c(cc2c1=O)COC(C)(C)C3`, the cell number change was 16.3%. In addition, the AC50 under setting [1] is 0.92 µM [rising, full curve, poor fit]. On to `CCC(Oc1ccccc1C)C(=O)N1CCCN(C)CC1` (configuration not stated), for which the cell number change was found to be 11%. `COc1cc(-c2nnc(SCc3ccccc3Cl)o2)cc(OC)c1OC`: under setting [1], the AC50 was 23.1 µM [rising, partial curve]. As for `COc1cccc2oc3cc(C#Cc4ccccn4)ccc3c(=O)c12`, the half-maximal activity concentration (AC50) under setting [1] was 20.6 µM [falling, partial curve]. For the compound `CN1C(=O)C2(c3ccccc31)N(C)CC(c1ccccc1)C21SC(=S)N(Cc2ccco2)C1=O` (configuration not stated), under setting [1], the concentration at half-maximal activity (AC50) was 29.1 µM [rising, single point]. Consider `CCOc1ccc(NC(=O)CCCCn2c(=O)[nH]c3ccsc3c2=O)cc1`, for which the cell number change was determined as 61.2%. Under setting [2], the AC50 was 7.31 µM [rising, partial curve]. Consider `O=C(COc1ccc2ccccc2c1)NNC(=O)C(=O)Nc1ccccc1`, for which the cell number change is 6.41%. Also, under setting [1], the AC50 is 23.1 µM [rising, single point]. As to `COc1ccc(C(=O)NCC(=O)OCc2ccc(Br)cc2)cc1`, the cell number change is -8.19%. Besides, under setting [1], the AC50 was 3.66 µM [rising, single point]. Turning to `O=C(COc1ccc(Cl)cc1)NCCCNC(=O)c1ccncc1`, the cell number change is -23.8%. For the compound `N#Cc1ccccc1S(=O)(=O)c1ccccc1C(=O)Nc1ccccc1`, the cell number change came to 28.9%. Also, under setting [1], the AC50 was 2.31 µM [rising, single point]. Regarding `O=C(CNc1ccccc1)N/N=C/c1c[nH]c2ccccc12`, the cell number change was 1.28%. The AC50 under setting [1] is 29.1 µM [rising, single point]. `O=C(O)c1cccc(NC(=O)c2ccc(S(=O)(=O)c3ccccc3)cc2)c1`: the cell number change was -23%. In addition, the AC50 under setting [1] was 25.9 µM [falling, single point]. In the case of `COc1ccc2c(c1)[C@@H]1[C@H](CO2)[C@H](c2ccccc2)[C@]2(C)C(=O)NCC(=O)N12`, the cell number change is 12.1%. For the same compound, the AC50 under setting [2] is 0.00461 µM [rising, full curve, poor fit]. Regarding `COC(=O)CC1(c2cccc3ccccc23)C(=O)c2ccccc2C1=O`, the cell number change was -46.5%. For the same compound, the concentration at half-maximal activity (AC50) under setting [2] is 0.00461 µM [falling, full curve, poor fit]. Moreover, under setting [1], the AC50 was 0.116 µM [falling, full curve, poor fit].

On to `CCN(CC)c1ccc(C(=O)NNC(=O)CNC(=O)c2ccco2)cc1`, for which the cell number change came to 8.84%. `CCN1/C(=C\c2ccc3ccccc3[n+]2CC)Sc2cc(C)ccc21`: the cell number change was -98.1%. Besides, the AC50 under setting [2] is 9.2 µM [falling, partial curve]. Under setting [1], the AC50 was 0.411 µM [falling, full curve]. On to `COc1ccc(C(=O)N/N=C\c2ccc(OC)c(COc3ccccc3Br)c2)c(OC)c1`, for which the cell number change amounted to 13.4%. As for `O=C(NCCCc1ccccc1)c1cccs1`, the cell number change is 4.31%. Further, under setting [1], the AC50 is 20.6 µM [rising, single point]. In the case of `CC[n+]1oc(-c2ccccc2)cc1C`, the cell number change was determined as 0.213%. The AC50 under setting [2] was 4.11 µM [falling, single point]. The half-maximal activity concentration (AC50) under setting [1] is 4.11 µM [falling, single point]. Turning to `Cc1ccc(-n2cccc2/C=C2/C(=N)N3C(=NC2=O)SN=C3S(C)(=O)=O)cc1Cl`, the cell number change turned out to be 2.26%. Further, under setting [1], the AC50 was 4.11 µM [rising, single point].

For the compound `N#Cc1cccc(NC(=O)COC(=O)C2CCC2)c1`, the cell number change was -29.6%. For the same compound, the AC50 under setting [1] is 2.91 µM [falling, full curve].

Take `CCCCOC(=O)Nc1sc2nc(C)cc(C)c2c1-n1cccc1`: the cell number change was -23.4%. The AC50 under setting [1] is 18.4 µM [falling, single point].

On to `COc1ccccc1CNS(=O)(=O)c1ccc(Cl)s1`, for which the cell number change is -2.86%. As for `O=C(CCn1c(=O)oc2cc(Cl)ccc21)Nc1ccc(O)cc1`, the cell number change is 12.6%. Further, under setting [1], the AC50 is 29.1 µM [rising, single point].

Consider `COc1cccc(N/N=C/c2cccc(Br)c2O)c1`, for which, under setting [1], the AC50 was 1.46 µM [rising, partial curve]. Regarding `CC(C)(C)c1ccc(C(=O)NCCC(=O)N2CCCC2)cc1`, the cell number change stood at 17.1%. Under setting [1], the AC50 was 23.1 µM [falling, single point].

Consider `COc1ccc(C(=O)/C=C/Sc2nc3ccccc3o2)cc1`, for which the cell number change is -67.7%. The concentration at half-maximal activity (AC50) under setting [2] is 10.3 µM [falling, partial curve]. Also, the AC50 under setting [1] is 13 µM [falling, partial curve]. As for `CSc1ccccc1C(=O)N(C)Cc1ccccc1`, the cell number change was found to be 45.2%.

Regarding `Cc1cc(Br)ccc1NC(=O)C1CSC2(C)CCC(=O)N12` (configuration not stated), the cell number change came out at 13.9%. In addition, the concentration at half-maximal activity (AC50) under setting [1] is 29.1 µM [rising, single point]. As to `COc1ccccc1/C=C1\SC(=S)N(CCC(=O)N2CCN(C)CC2)C1=O`, the cell number change was -10.3%. Under setting [1], the half-maximal activity concentration (AC50) was 6.51 µM [falling, single point].

Consider `CCc1ccc(C(=O)NCc2ccc(Cl)cc2Cl)cc1`, for which the cell number change is -22.7%. Besides, the AC50 under setting [1] was 0.00461 µM [rising, full curve, poor fit]. In the case of `CCC(Sc1nc2cc3c(cc2c(=O)n1Cc1ccco1)OCO3)C(=O)Nc1ccccc1OC` (configuration not stated), the cell number change is -12%. In addition, the concentration at half-maximal activity (AC50) under setting [1] is 6.51 µM [rising, single point]. Take `CCn1c(COc2ccc(=O)n(-c3ccccc3)n2)nnc1SCc1ccccc1C`: the half-maximal activity concentration (AC50) under setting [2] was 0.92 µM [rising, full curve, poor fit].

For `CC1(C)Cc2c(cnn2-c2ccccc2)-c2c1c1ccccc1n2CC(O)CCl` (configuration not stated), the cell number change is -45.4%. Under setting [2], the AC50 is 14.6 µM [falling, partial curve, poor fit]. In addition, under setting [1], the AC50 is 23.1 µM [falling, partial curve].
